Library screening results

By UniProt entry, the sequences of proteins in these tests, tags left out.
UniProt E9BF75, entry or part of it: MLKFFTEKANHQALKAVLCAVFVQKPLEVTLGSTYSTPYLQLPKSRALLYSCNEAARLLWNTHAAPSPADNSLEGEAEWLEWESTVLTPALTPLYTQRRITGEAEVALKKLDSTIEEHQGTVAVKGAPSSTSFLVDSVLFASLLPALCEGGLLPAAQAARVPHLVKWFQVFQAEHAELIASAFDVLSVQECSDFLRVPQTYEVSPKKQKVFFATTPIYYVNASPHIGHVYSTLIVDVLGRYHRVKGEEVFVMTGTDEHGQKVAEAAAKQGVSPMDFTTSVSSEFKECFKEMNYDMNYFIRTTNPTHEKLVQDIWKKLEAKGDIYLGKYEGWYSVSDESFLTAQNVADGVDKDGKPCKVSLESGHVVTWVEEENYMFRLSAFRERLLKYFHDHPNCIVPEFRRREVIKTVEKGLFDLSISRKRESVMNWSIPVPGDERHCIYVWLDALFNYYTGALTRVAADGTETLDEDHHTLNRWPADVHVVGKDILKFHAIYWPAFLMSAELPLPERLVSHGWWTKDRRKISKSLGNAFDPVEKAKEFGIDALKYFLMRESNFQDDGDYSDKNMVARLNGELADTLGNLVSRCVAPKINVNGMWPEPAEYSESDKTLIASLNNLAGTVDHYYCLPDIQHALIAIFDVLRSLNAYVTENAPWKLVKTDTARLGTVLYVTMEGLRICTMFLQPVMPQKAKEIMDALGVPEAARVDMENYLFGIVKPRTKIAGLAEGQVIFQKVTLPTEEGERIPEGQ

Data taken from ChEMBL document CHEMBL3988442, “University of Dundee, Small-Polar-MMV Screening Library” (2021).

All values are in %.
The controls that fix the scale are not given in the record; negative values are as filed.
The compounds are a random part of those screened.

A: 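Assay on Mycobacterium tuberculosis, filed only as a heat shock assay from Cornell; the read-out is not stated. The concentration is filed as 10 mM, unlikely as a test dose, so the dose is not known. Direction is inferred from retests: higher values go with stronger inhibition. Of about 69,000 compounds tested this way, about 930 (1.4%) reached 50% or more in at least one test.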
B: 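Methionyl-tRNA synthetase (putative), Leishmania donovani (UniProt E9BF75). Primary screen of methionyl-tRNA synthetase; the read-out is not stated. The test concentration is not given. The values are filed as inhibition. About 68,000 compounds were tested under these conditions; 0.035% (about 24) showed 50% or more at least once.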
C: 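Whole-cell assay for inhibitors of Mycobacterium tuberculosis growth, labelled Cornell in the record; the read-out is not stated. The concentration is filed as 10 mM, unlikely as a test dose, so the dose is not known. The record gives no direction; compounds strong in two other growth screens of this library score well above the rest, so higher reads as stronger inhibition. Size under these conditions: about 53,000 compounds, about 900 of them at 50% or above in at least one test.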

CCn1cc(C(=O)Nc2cc(C(=O)OC)ccc2C(=O)OC)cn1 gave A: 19.73%; B: 15.26%; C: 18.64%.
CC(=O)N1CCN(CCNS(=O)(=O)c2ccc(F)c(F)c2)CC1 gave A: 22.33%; B: 19.72%; C: 31.46%.
Cc1cnc2n1CCN(C)C21CCN(C(=O)CC(C)C)CC1 gave B: 17.99%.
CCNC(=O)NCc1nn(CCN2CCCC2)c(=O)c2ccccc12 gave A: 41.46%; B: 12.2%; C: -17.45%.
Cl.Cl.O=C([C@@H]1CSCN1)N1CC2(CCNCC2)c2cc(Cl)ccc21 gave A: 3.414%; C: 17.68%.
Cl.Clc1cccc(N[C@H]2CCCN[C@H]2Cc2ccccc2)c1 gave A: 104.4%; C: 107%.
Cc1ccc(NC2CCN(C(=O)c3ccc(C#N)cc3)CC2)nn1 gave A: -14.54%; B: 14.81%; C: -12.46%.
CCS(=O)(=O)N1CCC2(CC1)CN(CC1CCOC1)c1ccccc12 (stereo not drawn) gave B: 5.168%.
O=C(O)C(F)(F)F.O=C(O)C(F)(F)F.[H][C@@]12OCCN(Cc3cc(C)on3)[C@@]1([H])CC[C@H]2OCc1cccc(C)n1 gave A: -19.01%; C: 11.53%.
Cc1cnn(CCNCc2nnc(-c3ccccc3)o2)c1 gave A: 0.8084%; B: 10.93%.
CN(C)c1ncc(-c2cncnc2)c(C2CNCCO2)n1 (stereo not drawn) gave B: 14.78%.
Cn1ncc(N2CCN(Cc3ccc(S(C)(=O)=O)cc3)CC2)cc1=O gave A: 0.8555%; B: 7.904%.
CC(C)c1n[nH]c(C2CN(C(=O)c3cnccn3)CCO2)n1 (stereo not drawn) gave A: -5.519%; B: 9.714%; C: -23.19%.
COc1ccc(CC(=O)NC2CCc3nc(C)cn3C2)cc1 (stereo not drawn) gave A: -22.95%; B: 1.061%; C: 3.615%.
O=C(CC1CC1)N1Cc2nccn2CC(Cn2ncccc2=O)C1 (stereo not drawn) gave A: -22.96%; B: 5.205%; C: 4.027%.
CCOc1cc(CN(C)CCC(=O)OC)ccc1OC(F)F gave A: 0.3395%; B: 8.992%; C: 11.81%.
Cc1ccccc1C(=O)N1CCCn2nnc(Cn3cccn3)c2C1 gave A: -2.136%; B: 6.569%; C: 18.04%.
Cc1nc(C)c(C(=O)N2CCc3nc4c(C)csc4c(=O)n3CC2)s1.Cl gave A: -25.92%.
CNC(=O)C1CCC2(CCN(c3ncc(C)cn3)CC2)CO1 (stereo not drawn) gave A: -7.442%; B: 13.04%; C: 8.857%.
Cc1noc(C)c1CN(C)Cc1nc(N)c2ccccc2n1 gave A: -41.71%; B: 5.759%; C: -58.23%.
O=C1CC(NCc2ccc(OC(F)F)cc2)CN1Cc1cccc(F)c1 (stereo not drawn) gave A: 8.651%; B: 2.089%; C: -27.66%.
Cc1ccc(CN2CCC3(CC2)CC(c2cccnc2)C(=O)N3C)o1.O=C(O)C(F)(F)F.O=C(O)C(F)(F)F (stereo not drawn) gave A: 14.8%; C: 13.6%.
CC(=O)c1ccc(-c2cnn(CC(=O)Nc3ccnn3C)c2)nc1 gave A: -25.09%; B: 7.666%.
Cn1c(CN2CCCc3cc(F)cc(F)c32)cc(=O)n(C)c1=O gave A: 8.116%; B: 14.61%; C: 10.78%.
Cc1nc[nH]c1-c1nccn1CCN1CCCOC1=O gave A: 22.12%; B: 14.11%; C: -1.163%.

Once more, the final 2:

{"smiles": "Cn1c(CN2CCCc3cc(F)cc(F)c32)cc(=O)n(C)c1=O", "A": 8.116, "B": 14.61, "C": 10.78}
{"smiles": "Cc1nc[nH]c1-c1nccn1CCN1CCCOC1=O", "A": 22.12, "B": 14.11, "C": -1.163}